Reference: PMC7819943, “Rice protein-binding microarrays: a tool to detect cis-acting elements near promoter regions in rice”
The other results are listed elsewhere or left out.

Target: T1, OsSMF1 (Oryza sativa, UniProt Q6ZLB0 1-436)
T1 sequence: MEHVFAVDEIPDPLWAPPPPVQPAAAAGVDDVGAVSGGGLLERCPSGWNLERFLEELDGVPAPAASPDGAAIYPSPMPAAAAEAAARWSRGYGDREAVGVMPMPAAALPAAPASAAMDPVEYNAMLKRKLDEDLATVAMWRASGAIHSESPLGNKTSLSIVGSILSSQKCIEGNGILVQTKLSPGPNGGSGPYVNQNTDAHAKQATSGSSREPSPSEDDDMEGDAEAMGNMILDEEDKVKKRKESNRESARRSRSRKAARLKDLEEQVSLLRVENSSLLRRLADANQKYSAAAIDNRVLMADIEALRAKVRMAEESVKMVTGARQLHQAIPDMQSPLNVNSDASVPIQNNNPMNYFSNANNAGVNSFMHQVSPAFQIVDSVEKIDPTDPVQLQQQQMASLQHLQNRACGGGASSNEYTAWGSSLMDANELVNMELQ
Assay: protein-binding microarray (RPBM); PBS, 2% BSA, 51.3 ng/ul salmon testes DNA, 50 uM zinc acetate, 200 nM TF, 25 C, 1 h; high values mean tight binding
Conditions: protein: recombinant; tags: N-terminal polyhistidine and DsRed monomer fusion (pET32a); chain copies: 2; label: CyDye5-dUTP incorporated in the synthesized complementary strand; 3' TTTTT single-stranded linker to array surface; dsDNA, one strand shown
Outline: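 Ni–NTA purification followed expression in E. coli BL21-CodonPlus of transcription factors fused N-terminally to a polyhistidine tag and DsRed. At 200 nM in PBS with 2% BSA, salmon testes DNA and 50 µM zinc acetate, the protein was incubated for 1 h at 25 °C with a custom Agilent array that had been primer-extended with Cy5-dUTP and blocked with 2% BSA. After washing, the array was read on an Axon 4000B scanner. The binding signal is per-feature fluorescence intensity in arbitrary units.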

| Sequence | binding signal |
| --- | --- |
| GAGGGGAAAGAGAAAGGTGTTGGCGTGGCATCCTGACATTCGGAGTCACCTAGTGCAG | 8550 fluorescence intensity (a.u.) |
| AATATAAACAACACGTCAGAGATCAGACACCCACCTCTCCCGGAGTCACCTAGTGCAG | 11100 fluorescence intensity (a.u.) |
| CAAGGCGGCCCAACCATCTTCGAAATGCGGCCCATGACGACGGAGTCACCTAGTGCAG | 39100 fluorescence intensity (a.u.) |
| AACTTGATGTTGATGGGCGTCATCCAGTTCAAACAAATACCGGAGTCACCTAGTGCAG | 3420 fluorescence intensity (a.u.) |
| CAGTAATTGTCACTATCTTATTACACATTATTCTGTCCAGCGGAGTCACCTAGTGCAG | 3340 fluorescence intensity (a.u.) |
| CCCGCGCCGAGGCCATGTGGTGCCTCCTCTCCTGTGATCTCGGAGTCACCTAGTGCAG | 3360 fluorescence intensity (a.u.) |
| TGCAGCCCTTGTAGAGAGCGGCAAGGGACTATTTGTGTAACGGAGTCACCTAGTGCAG | 10000 fluorescence intensity (a.u.) |
| CATCGGCTGACATCGACGTCGGCTCTTTGTTGATCATCATCGGAGTCACCTAGTGCAG | 5440 fluorescence intensity (a.u.) |
| CAACGATATATATACCACCTGCCACCCCTTCTTCTCCTCTCGGAGTCACCTAGTGCAG | 3300 fluorescence intensity (a.u.) |
| TGGATCGAATTGCCATGTAACCACCATGTTACTGCCACGTCGGAGTCACCTAGTGCAG | 11100 fluorescence intensity (a.u.) |
| GAGTGTTCTTGTCAGTTGTCACCACTCTCTTTCTCTTCTTCGGAGTCACCTAGTGCAG | 3180 fluorescence intensity (a.u.) |
| TTCAAAATGTTTATTACAGCTCATACAGTTTTATTGCTGCCGGAGTCACCTAGTGCAG | 6240 fluorescence intensity (a.u.) |
| CGAGCCCATTATTTACTGGCCGTCTGGCCCTCATTTGGTCCGGAGTCACCTAGTGCAG | 3150 fluorescence intensity (a.u.) |
| CTCTCCTTGTAGGCATGTCATCGAACACGTGGCATGCGTCCGGAGTCACCTAGTGCAG | 16000 fluorescence intensity (a.u.) |
| CATGCGTGCAGCGTTGGGTCTGGGACGGCACACGTGGAGCCGGAGTCACCTAGTGCAG | 6150 fluorescence intensity (a.u.) |
| TCTTATGCAAGTGTTTGTTTCGTCACCAAAATTGTGGCATCGGAGTCACCTAGTGCAG | 3690 fluorescence intensity (a.u.) |
| TCAGGACTGCCACACGTACGCCACGTAGACCAAAATCGCCCGGAGTCACCTAGTGCAG | 22700 fluorescence intensity (a.u.) |
| AGTACTCTTGTTGGAGCACAAACAAGCTAACAGCTGGCTACGGAGTCACCTAGTGCAG | 23400 fluorescence intensity (a.u.) |
| ATCAGCGCGCCACGTGTGAAGACGGGGCTCCGTTACGTGGCGGAGTCACCTAGTGCAG | 15500 fluorescence intensity (a.u.) |
| CGACGCCGAAAGACGCCGTCGTCATCCGTCCAAGGAATTGCGGAGTCACCTAGTGCAG | 5810 fluorescence intensity (a.u.) |
| GGTCAAGCATCTGATATGACATCCAAAATTTTCTTTTCGCCGGAGTCACCTAGTGCAG | 3280 fluorescence intensity (a.u.) |

| Sequence | binding signal |
| --- | --- |
| TGACATGTAAATTAACATAGAGATATTTCTTAATTTGACACGGAGTCACCTAGTGCAG | 35100 fluorescence intensity (a.u.) |
| CGCGCGCGCCGCCGCCGGTCGGTAACGACGGCGACGATGACGGAGTCACCTAGTGCAG | 65500 fluorescence intensity (a.u.) |
| AGAAGAACGATGGTGATTCATGGAGAAAGAGCAGTGATGGCGGAGTCACCTAGTGCAG | 3230 fluorescence intensity (a.u.) |
| TTAAACCGACGGACGATGACTCAGTCACACAAGAACCAGTCGGAGTCACCTAGTGCAG | 5490 fluorescence intensity (a.u.) |
| AAAGAGGCAATATTTTGACGACACATTTGCCCCGTGTACCCGGAGTCACCTAGTGCAG | 4280 fluorescence intensity (a.u.) |
| CTTAACAATTTGAGAGTTATCATGATTTATATTTCCAAGGCGGAGTCACCTAGTGCAG | 26600 fluorescence intensity (a.u.) |
| AAATAGGGACGCTGTGATGCGTCGGCACAACACAAAACGACGGAGTCACCTAGTGCAG | 3280 fluorescence intensity (a.u.) |
| TTGTAAATTGTTACCCATCTATCATCCAATCAAATTTCAGCGGAGTCACCTAGTGCAG | 4220 fluorescence intensity (a.u.) |
| GTAGGGGAATTTCTATACCTGCTTTGCGGAACTCGATCCACGGAGTCACCTAGTGCAG | 18500 fluorescence intensity (a.u.) |
| GTTTCAACGTCACGTCACGCGTCACGGCTCAAGCATCAGCCGGAGTCACCTAGTGCAG | 10500 fluorescence intensity (a.u.) |
| TGGAGGCGACGTGGCGGTCGTTGACTCGTTGTGTGCTCGACGGAGTCACCTAGTGCAG | 7090 fluorescence intensity (a.u.) |
| TGGACGATGATCGACGCGGCGTGGTGCACGAGCGCCTCCGCGGAGTCACCTAGTGCAG | 3260 fluorescence intensity (a.u.) |
| CGGATGGCAATGTCGCACCAAGAAATACGCGCACGAGCTGCGGAGTCACCTAGTGCAG | 3480 fluorescence intensity (a.u.) |
| GAGGGGCGCGGGCGCCGAGCTCCATCTGGCGAGCAGGGTACGGAGTCACCTAGTGCAG | 42200 fluorescence intensity (a.u.) |
| CCCCTGTCAATACAACCAGCTGCACGCCCATTCGTCTCAACGGAGTCACCTAGTGCAG | 3550 fluorescence intensity (a.u.) |
| GGCGGCGAGGCCGCACCTCCTCGCCGCCACGTCGCCGGCGCGGAGTCACCTAGTGCAG | 7990 fluorescence intensity (a.u.) |
| GCTTCACTTCCCTAGCAGCGTGATAAACTGACGTCATGTGCGGAGTCACCTAGTGCAG | 11700 fluorescence intensity (a.u.) |
| CTAGAACAATGTAAGATGCAGACTTGTAAATACATCCGTGCGGAGTCACCTAGTGCAG | 4340 fluorescence intensity (a.u.) |
| TCCACCTCGGCGTCCACGTTGGACTGGACCTCCACATCGGCGGAGTCACCTAGTGCAG | 7590 fluorescence intensity (a.u.) |
| TTATAAACTCGTCTCGCGATTTACTGACAAATTATGTAATCGGAGTCACCTAGTGCAG | 4300 fluorescence intensity (a.u.) |
| AGCCGTAGCCCTCATTGGTACGTGGCCTCGTGGATCCACTCGGAGTCACCTAGTGCAG | 5650 fluorescence intensity (a.u.) |

An excerpt of these results, in CSV form.
Sequence,binding signal
TGGAGGCGACGTGGCGGTCGTTGACTCGTTGTGTGCTCGACGGAGTCACCTAGTGCAG,7090 fluorescence intensity (a.u.)
TGGACGATGATCGACGCGGCGTGGTGCACGAGCGCCTCCGCGGAGTCACCTAGTGCAG,3260 fluorescence intensity (a.u.)
CGGATGGCAATGTCGCACCAAGAAATACGCGCACGAGCTGCGGAGTCACCTAGTGCAG,3480 fluorescence intensity (a.u.)
